Values from PubChem BioAssay AID1259308 (NCATS, 2017).

- Assay: 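Genes whose loss raises luciferase production in HEK293 cells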 (primary screen)
- Cells: human HEK293 embryonic kidney cells stably expressing firefly luciferase (HEK-CMV-Luc2-Hygro)
- Reagents: single siRNA against human genes, 0.8 pmol siRNA per well
- Time to read-out: 72 h
- Detection: 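Reporter luminescence and viable-cell signal on separate replicate plates, given as percent of non-targeting control and median/MAD z-scores, plus per-cell luciferase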
- Scale: total luciferase, z-score: higher = more reporter protein produced
- Hit rule: 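An siRNA counts as active if its total luciferase robust z-score exceeds 3; genes with two or more such siRNAs out of three were retested with fresh siRNAs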
- Calls: active = raised luciferase; inactive = no rise
This is one part, drawn at random, of about 59,000 reagents tested. About 1,510 of all reagents (2.6%) were called active. 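Calls use total luciferase alone and ignore viability, so some active siRNAs may act by altering cell number.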 Unmarked entries are inactive. Reagents against one gene are numbered here. Not all columns of the deposit are shown.

gene | reagent | total luciferase, z-score
TUBA5P | 1 | 1.84
TUBA5P | 2 | 0.0914
TUBA5P | 3 | 0.29
CDC37 | 1 | 0.819
CDC37 | 2 | -1.64
CDC37 | 3 | -0.921
CCDC30 | 1 | -1.63
CCDC30 | 2 | 0.0706
CCDC30 | 3 | -1.01
CCDC30 | 4 | 0.889
CCDC30 | 5 | 0.745
CCDC30 | 6 | -0.841

Next part; the last 3 above are carried over.
gene | reagent | total luciferase, z-score
CCDC30 | 4 | 0.889
CCDC30 | 5 | 0.745
CCDC30 | 6 | -0.841
EYA3 | 1 | 1.4
EYA3 | 2 | 1.34
EYA3 | 3 | -0.151
CYB5R5 | 1 | 2.95
CYB5R5 | 2 | 0.558
CYB5R5 | 3 | -1.36
SRSF11 | 1 | -1.81
SRSF11 | 2 | 0.00614
SRSF11 | 3 | 0.35
ALDH1B1 | 1 | 1.38
ALDH1B1 | 2 | -1.18
ALDH1B1 | 3 | 0.138
